Some of the results follow.

Chains of the proteins cited; added tags and fusions are not shown. Lines headed by an entry give the natural chain unless they say otherwise; changes in a name come on top.
UniProt Q16222: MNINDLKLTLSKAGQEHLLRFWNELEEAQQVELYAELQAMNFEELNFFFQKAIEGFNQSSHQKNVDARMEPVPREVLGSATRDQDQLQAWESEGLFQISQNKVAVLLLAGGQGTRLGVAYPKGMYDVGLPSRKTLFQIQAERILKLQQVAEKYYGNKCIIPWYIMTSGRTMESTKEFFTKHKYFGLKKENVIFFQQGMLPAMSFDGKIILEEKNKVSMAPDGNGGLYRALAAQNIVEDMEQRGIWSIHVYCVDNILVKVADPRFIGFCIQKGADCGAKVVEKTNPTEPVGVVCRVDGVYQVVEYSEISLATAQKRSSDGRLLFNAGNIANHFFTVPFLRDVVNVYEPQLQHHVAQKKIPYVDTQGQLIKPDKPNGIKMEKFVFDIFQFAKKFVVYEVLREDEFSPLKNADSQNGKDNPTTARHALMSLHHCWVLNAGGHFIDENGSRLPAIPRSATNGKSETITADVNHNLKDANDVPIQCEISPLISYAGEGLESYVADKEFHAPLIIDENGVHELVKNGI
UniProt P30536, whole entry, looked up: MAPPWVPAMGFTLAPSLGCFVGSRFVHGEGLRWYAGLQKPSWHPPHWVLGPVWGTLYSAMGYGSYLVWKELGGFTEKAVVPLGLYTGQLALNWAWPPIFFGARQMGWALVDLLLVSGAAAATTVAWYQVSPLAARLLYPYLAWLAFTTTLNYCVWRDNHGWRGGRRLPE
UniProt Q8NG68: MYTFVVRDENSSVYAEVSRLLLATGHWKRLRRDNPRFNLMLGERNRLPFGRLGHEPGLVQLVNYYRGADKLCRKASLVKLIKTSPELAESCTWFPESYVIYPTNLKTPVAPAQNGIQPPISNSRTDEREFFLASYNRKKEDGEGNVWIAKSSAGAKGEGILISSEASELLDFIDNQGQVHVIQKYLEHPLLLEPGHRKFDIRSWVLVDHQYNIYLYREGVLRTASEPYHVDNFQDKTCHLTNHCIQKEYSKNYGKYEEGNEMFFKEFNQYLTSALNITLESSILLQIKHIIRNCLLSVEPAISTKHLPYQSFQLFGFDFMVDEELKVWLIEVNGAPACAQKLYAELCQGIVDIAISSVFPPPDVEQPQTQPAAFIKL
UniProt Q96J42: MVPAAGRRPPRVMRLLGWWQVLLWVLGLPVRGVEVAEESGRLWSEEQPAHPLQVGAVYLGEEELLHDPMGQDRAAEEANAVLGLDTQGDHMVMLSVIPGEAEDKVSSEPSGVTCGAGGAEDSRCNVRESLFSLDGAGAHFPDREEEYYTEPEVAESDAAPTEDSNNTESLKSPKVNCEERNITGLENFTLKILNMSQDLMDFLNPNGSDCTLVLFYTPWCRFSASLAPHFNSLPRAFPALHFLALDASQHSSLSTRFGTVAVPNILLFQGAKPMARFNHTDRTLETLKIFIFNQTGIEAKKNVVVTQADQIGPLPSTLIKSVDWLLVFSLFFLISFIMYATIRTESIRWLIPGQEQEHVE
UniProt Q9NPD8: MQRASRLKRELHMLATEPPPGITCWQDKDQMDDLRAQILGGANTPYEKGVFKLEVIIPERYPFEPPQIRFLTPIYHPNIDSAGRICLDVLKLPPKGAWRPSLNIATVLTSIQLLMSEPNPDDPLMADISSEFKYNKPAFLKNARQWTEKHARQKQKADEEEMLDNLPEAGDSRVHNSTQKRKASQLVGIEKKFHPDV
UniProt Q6IBS0: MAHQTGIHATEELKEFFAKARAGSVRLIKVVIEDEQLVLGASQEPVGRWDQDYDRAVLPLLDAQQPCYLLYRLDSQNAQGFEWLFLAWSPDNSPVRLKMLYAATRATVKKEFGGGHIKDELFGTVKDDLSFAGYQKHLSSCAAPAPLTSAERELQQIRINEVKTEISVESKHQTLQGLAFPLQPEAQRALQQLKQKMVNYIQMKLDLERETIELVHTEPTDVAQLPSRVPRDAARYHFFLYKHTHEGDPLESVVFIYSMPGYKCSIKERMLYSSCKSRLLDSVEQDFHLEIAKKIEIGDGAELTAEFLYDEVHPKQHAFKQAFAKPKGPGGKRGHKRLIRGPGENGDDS
UniProt P62253: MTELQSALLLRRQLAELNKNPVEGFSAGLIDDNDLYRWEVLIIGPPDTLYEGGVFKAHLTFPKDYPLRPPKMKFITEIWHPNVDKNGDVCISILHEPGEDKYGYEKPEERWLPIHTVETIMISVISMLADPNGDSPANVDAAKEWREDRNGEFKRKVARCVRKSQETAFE
UniProt Q969M7: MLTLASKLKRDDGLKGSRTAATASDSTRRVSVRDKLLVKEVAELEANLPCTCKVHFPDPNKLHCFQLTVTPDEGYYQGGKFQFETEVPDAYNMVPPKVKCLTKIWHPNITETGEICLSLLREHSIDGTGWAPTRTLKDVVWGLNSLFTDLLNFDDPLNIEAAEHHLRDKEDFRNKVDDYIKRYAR
UniProt O15042: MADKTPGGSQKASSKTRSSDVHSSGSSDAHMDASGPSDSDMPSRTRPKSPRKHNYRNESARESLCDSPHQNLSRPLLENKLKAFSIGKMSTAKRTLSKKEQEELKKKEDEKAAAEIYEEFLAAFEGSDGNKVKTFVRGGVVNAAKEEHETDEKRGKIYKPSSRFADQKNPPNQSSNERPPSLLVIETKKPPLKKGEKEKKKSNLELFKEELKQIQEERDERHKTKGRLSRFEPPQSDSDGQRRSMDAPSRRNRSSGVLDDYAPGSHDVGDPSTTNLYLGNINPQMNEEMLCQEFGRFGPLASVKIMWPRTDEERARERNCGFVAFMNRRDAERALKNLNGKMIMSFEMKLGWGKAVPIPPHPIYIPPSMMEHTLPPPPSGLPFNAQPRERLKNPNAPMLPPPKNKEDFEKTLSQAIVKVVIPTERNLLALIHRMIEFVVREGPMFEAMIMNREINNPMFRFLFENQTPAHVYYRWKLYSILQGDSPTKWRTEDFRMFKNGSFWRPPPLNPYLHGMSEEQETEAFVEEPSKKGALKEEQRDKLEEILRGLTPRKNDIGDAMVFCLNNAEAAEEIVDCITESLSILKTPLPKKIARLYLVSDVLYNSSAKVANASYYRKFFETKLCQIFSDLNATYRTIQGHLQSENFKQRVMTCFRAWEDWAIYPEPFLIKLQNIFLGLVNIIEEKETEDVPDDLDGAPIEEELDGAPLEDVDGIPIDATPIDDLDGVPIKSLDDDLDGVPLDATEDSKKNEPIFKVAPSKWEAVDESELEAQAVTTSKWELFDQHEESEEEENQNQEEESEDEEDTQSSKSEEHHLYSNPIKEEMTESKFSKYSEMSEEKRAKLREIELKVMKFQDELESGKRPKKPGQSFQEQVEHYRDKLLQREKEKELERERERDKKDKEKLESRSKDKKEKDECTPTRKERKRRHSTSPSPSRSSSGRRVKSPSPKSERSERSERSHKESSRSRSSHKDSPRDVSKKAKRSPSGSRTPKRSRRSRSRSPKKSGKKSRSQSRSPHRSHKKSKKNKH
UniProt Q9H3M7: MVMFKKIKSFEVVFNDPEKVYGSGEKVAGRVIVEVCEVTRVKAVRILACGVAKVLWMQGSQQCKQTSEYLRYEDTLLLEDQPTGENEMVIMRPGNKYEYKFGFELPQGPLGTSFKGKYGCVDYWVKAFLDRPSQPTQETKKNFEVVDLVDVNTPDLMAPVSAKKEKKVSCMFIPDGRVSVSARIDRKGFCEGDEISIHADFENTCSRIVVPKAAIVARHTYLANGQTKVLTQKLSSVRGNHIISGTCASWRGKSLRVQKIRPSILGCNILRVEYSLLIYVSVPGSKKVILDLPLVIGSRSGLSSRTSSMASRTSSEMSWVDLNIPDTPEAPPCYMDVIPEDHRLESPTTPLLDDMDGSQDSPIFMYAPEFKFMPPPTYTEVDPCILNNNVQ
UniProt P61086: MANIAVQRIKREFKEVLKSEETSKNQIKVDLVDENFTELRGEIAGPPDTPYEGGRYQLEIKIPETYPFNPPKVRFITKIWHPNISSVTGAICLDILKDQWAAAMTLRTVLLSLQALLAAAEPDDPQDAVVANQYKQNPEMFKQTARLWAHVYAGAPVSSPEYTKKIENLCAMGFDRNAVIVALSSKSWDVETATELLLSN
UniProt Q01081: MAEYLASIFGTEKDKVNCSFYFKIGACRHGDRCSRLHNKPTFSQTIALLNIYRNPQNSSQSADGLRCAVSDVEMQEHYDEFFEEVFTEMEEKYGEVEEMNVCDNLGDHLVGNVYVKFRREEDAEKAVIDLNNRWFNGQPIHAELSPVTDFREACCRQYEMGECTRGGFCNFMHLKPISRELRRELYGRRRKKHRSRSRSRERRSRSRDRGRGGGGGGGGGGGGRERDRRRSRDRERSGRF
UniProt Q13509, whole entry, looked up: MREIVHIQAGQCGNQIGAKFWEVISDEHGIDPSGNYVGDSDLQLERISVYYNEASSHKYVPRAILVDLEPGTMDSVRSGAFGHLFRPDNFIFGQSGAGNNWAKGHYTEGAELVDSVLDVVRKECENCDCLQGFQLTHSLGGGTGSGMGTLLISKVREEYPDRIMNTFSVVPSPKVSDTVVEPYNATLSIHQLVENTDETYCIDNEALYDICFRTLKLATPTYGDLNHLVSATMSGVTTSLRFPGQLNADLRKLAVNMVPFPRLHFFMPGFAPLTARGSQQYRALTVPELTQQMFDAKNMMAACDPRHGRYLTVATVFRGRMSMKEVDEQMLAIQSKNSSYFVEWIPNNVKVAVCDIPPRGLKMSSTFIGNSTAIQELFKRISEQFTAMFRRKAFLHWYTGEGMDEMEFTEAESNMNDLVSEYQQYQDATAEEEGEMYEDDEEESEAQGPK
UniProt Q99757: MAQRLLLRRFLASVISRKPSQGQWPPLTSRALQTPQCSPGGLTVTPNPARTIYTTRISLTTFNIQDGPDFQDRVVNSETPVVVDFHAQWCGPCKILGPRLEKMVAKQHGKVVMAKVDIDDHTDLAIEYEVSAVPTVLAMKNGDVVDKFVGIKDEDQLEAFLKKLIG

Compound in the experiment: c1cc(OCCN2CCCCC2)cc(-c2n[nH]c3ccc(-c4nnc[nH]4)cc23)c1
Nature of the experiment: log2 fold change, soluble protein after heating vs DMSO (PISA); higher = thermal stabilisation; K562 cells, 10 uM, 30 min; active = over 0.2 and 3.5 SD of the protein, either way, in both replicates (recomputed). The gist of the method: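 Values are thermal stability changes relative to control samples and are taken from duplicates. They are stated as log2 fold changes. Before quantification by TMTpro 16plex LC-MS/MS with equalised channel sums, K562 cells at 2×10^6 cells/mL were treated with 10 μM compound for 30 min, heated in aliquots for 3 min across 48°C-58°C, pooled, extracted in PBS with 0.5% NP-40 at 4°C, and centrifuged at 21,000xg for 90 min to give the soluble supernatant.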
In the case of UAP1 (UniProt Q16222), the log2 fold change was inactive: -0.01. Consider TSPO (UniProt P30536), for which the log2 fold change was inactive: -0.095. Under TTN isoform 12 (UniProt Q8WZ42) stands inactive: -0.163; under TTL (UniProt Q8NG68), inactive: 0.095; under TXNDC15 (UniProt Q96J42), inactive: 0.006. Take UBE2T (UniProt Q9NPD8): the log2 fold change is inactive: -0.026.

Consider TWF2 (UniProt Q6IBS0), for which the log2 fold change was inactive: -0.02. Next, TUFM (UniProt P49411): inactive: -0.01; UBA52 (UniProt P62987): inactive: -0.216; UBE2G1 (UniProt P62253): inactive: 0.008. Next, UBE2F isoform 2 (UniProt Q969M7): inactive: 0.025. Under U2SURP (UniProt O15042) stands inactive: -0.116. For the target TXNIP (UniProt Q9H3M7), the log2 fold change is inactive: 0.005. As for UBE2K (UniProt P61086), the log2 fold change was inactive: 0.001. Regarding U2AF1 isoform 2 (UniProt Q01081), the log2 fold change is inactive: -0.093. For the target TUBB3 (UniProt Q13509), the log2 fold change was inactive: -0.019. For the target TXN2 (UniProt Q99757), the log2 fold change is inactive: -0.036.

Source of the values: the supplement of paper PMC10849652.
